Results are given in words; binding and its absence hold for the method and conditions named. Binding seen in cells or lysates may run through a third protein. Some entries that bind do so weakly or less than the wild type.

By UniProt entry, the sequences of proteins in these tests, tags left out. Residues count along the entry.
UniProt Q9QUK6, residues 26-835: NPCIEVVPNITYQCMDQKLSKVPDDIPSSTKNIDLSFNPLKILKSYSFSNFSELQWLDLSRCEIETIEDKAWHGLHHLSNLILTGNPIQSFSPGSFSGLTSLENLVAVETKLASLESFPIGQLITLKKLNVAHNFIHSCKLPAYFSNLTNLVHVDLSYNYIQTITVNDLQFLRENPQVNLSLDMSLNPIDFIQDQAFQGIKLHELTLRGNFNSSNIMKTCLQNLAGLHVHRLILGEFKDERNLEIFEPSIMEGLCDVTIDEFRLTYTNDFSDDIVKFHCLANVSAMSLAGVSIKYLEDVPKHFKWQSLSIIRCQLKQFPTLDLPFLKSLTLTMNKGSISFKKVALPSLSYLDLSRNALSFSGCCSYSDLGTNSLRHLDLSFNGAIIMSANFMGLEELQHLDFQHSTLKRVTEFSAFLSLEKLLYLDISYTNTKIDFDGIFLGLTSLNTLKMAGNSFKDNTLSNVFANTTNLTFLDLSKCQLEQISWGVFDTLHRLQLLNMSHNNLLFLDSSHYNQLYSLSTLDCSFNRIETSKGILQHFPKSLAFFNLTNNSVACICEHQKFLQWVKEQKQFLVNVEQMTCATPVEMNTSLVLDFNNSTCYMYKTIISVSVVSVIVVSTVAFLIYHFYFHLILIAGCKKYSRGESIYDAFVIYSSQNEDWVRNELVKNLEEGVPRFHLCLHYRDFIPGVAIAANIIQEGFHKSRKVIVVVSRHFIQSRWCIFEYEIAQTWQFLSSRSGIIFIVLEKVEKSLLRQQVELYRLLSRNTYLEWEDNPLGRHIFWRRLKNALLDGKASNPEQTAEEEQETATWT
UniProt P63158: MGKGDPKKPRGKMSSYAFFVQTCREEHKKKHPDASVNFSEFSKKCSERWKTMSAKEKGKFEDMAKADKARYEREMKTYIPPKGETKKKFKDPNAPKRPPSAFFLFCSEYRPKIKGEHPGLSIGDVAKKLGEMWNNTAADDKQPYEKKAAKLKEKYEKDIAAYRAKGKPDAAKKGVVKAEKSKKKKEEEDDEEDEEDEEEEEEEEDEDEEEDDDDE

The assay deals with Toll-like receptor 4 (TLR4) (mouse (endogenous in primary chondrocytes)) (UniProt Q9QUK6). Kind of assay: co-IP; lysates of primary mouse chondrocytes treated with IL-1β with or without Nec-1; pre-cleared with IgG and Protein A+G agarose, primary antibody overnight at 4°C, Protein A+G agarose 3 h, washed five times with lysis buffer, western blot. A general note: A western blot detects proteins with antibodies after separation by electrophoresis.

Consider “high-mobility group box 1 (HMGB1) (from UniProt P63158 1-215)”, for which the binding entry is listed as “binds”.

Values taken from article PMC6277802.
